Source: ChEMBL document CHEMBL4732197, “Identification of novel potent HIV-1 inhibitors by exploiting the tolerant regions of the NNRTIs binding pocket” (Eur J Med Chem, 2021)

Test: physchem
Conditions: buffer, pH 7.4

Question: For Cc1cc(/C=C/C#N)cc(C)c1Oc1nc(NC2CCN(Cc3ccc(S(N)(=O)=O)cc3)CC2)nc2ccsc12, which solubility is on record?
Answer: < 1 µg/mL
